Reference: publication PMC4570271, “Resolution of structure of PIP5K1A reveals molecular mechanism for its regulation by dimerization and dishevelled” (Nature Communications, 2015)
These are yes or no findings as the source states them, for the method shown. Some binding calls cover weakened binding; strength is not graded here. For some of these results: Tags and fused reporters may be left off the sequences shown.

Amino acid sequences for entries named in this document (tags omitted). A change or cut given only in a name is not applied to a line headed by its entry. Chains listed by the source or under a name are the forms on record and can include a tag or linker.
zebrafish PIP5K1A kinase catalytic domain, I133A mutant (Q503I3, form named): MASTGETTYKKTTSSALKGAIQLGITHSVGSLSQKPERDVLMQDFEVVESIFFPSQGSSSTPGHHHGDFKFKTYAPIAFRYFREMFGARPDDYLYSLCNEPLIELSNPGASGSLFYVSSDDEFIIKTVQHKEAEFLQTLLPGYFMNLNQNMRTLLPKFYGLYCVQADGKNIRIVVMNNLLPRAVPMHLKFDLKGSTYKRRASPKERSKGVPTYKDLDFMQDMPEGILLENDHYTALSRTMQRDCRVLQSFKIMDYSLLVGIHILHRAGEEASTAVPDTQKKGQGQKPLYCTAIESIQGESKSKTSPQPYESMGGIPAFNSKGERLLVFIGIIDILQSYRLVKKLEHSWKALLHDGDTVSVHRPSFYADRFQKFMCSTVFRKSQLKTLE
zebrafish PIP5K1A kinase catalytic domain, K80A mutant (Q503I3, form named): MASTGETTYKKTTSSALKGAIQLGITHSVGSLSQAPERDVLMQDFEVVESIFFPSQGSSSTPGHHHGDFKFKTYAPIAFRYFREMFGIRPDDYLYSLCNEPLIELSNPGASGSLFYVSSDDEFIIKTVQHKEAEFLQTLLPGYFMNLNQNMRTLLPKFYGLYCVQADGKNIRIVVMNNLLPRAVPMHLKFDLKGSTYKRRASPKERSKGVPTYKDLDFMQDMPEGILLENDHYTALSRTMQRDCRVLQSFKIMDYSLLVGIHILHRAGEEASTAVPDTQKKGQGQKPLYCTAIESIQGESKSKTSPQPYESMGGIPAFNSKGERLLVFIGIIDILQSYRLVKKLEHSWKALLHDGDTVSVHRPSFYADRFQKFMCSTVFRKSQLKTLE
zebrafish PIP5K1A kinase catalytic domain, R197A mutant (Q503I3, form named): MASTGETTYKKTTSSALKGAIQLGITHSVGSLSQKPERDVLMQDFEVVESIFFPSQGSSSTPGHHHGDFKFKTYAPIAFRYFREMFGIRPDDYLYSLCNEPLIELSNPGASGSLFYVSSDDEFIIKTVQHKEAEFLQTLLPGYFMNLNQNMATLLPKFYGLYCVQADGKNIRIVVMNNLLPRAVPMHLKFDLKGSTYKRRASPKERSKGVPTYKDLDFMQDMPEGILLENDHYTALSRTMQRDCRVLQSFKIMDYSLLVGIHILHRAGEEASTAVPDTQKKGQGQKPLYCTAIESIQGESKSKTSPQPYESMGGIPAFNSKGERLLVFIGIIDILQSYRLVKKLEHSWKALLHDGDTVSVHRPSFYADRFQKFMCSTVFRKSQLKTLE
zebrafish PIP5K1A kinase catalytic domain, triple D84R/L86A/V291A (DLV) mutant (Q503I3, form named): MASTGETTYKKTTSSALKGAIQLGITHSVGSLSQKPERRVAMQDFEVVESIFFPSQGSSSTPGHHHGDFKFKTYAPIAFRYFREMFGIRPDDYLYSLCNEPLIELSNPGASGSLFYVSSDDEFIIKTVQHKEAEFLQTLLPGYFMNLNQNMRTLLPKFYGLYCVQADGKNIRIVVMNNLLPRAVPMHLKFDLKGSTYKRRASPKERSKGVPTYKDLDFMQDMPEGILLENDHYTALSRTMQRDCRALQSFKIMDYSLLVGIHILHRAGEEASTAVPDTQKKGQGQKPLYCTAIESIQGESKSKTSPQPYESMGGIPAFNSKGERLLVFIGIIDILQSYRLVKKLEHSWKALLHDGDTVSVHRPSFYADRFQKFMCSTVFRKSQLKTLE

Assays:
[1] = biological target: T1, GST-tagged DIX domain of mouse DVL1 (residues 1-106) with Y17D (mouse) (UniProt P51141); test: pull-down; GST-DIX (or GST) 0.5 μg and His-tagged PIP5K1 0.5 μg in 200 μl of 10 mM HEPES (pH 7.4), 150 mM NaCl, 0.2% Triton, 0.01% SDS, 3 mM dithiothreitol, 10% glycerol; 4 °C overnight; glutathione beads; western blotting; both purified
T1 sequence: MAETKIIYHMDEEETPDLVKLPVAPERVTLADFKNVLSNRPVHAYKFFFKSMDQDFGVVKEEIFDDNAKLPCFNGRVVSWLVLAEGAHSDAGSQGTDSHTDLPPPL

[2] = biological target: zebrafish PIP5K1A kinase catalytic domain, triple D84R/L86A/V291A (DLV) mutant (zebrafish) (UniProt Q503I3); test: SEC-MALS; Superdex S-200 10/30 HR; 10 mM HEPES (pH 7.3), 300 mM NaCl, 5% glycerol, 0.01% TX-100; 0.5 ml/min; both purified

Row | binding [1] | binding [2] | Substance
1 | binds weakly | – | zebrafish PIP5K1A kinase catalytic domain, I133A mutant (from UniProt Q503I3 49-431) (domain or fragment)
2 | binds weakly | – | zebrafish PIP5K1A kinase catalytic domain, K80A mutant (from UniProt Q503I3 49-431) (domain or fragment)
3 | binds weakly | – | zebrafish PIP5K1A kinase catalytic domain, R197A mutant (from UniProt Q503I3 49-431) (domain or fragment)
4 | – | no binding | zebrafish PIP5K1A kinase catalytic domain, triple D84R/L86A/V291A (DLV) mutant (from UniProt Q503I3 49-431) (domain or fragment)
